Source: paper PMC10204490, “Incubation Time Influences Organic Anion Transporter 1 Kinetics and Renal Clearance Predictions” (Journal of Xenobiotics, 2023)

Experiments:
[1] = tested on: OAT1; details: cited from earlier work
[2] = target: T1, OAT1 (Homo sapiens, UniProt Q4U2R8); experiment: Inhibition of [3H]PAH uptake into CHO-OAT1 cells (IC50 determination); details: IC50 for inhibition of [3H]PAH uptake, [3H]PAH 20 nM, mean ± SEM, n=4
T1 sequence (Q4U2R8 1-563): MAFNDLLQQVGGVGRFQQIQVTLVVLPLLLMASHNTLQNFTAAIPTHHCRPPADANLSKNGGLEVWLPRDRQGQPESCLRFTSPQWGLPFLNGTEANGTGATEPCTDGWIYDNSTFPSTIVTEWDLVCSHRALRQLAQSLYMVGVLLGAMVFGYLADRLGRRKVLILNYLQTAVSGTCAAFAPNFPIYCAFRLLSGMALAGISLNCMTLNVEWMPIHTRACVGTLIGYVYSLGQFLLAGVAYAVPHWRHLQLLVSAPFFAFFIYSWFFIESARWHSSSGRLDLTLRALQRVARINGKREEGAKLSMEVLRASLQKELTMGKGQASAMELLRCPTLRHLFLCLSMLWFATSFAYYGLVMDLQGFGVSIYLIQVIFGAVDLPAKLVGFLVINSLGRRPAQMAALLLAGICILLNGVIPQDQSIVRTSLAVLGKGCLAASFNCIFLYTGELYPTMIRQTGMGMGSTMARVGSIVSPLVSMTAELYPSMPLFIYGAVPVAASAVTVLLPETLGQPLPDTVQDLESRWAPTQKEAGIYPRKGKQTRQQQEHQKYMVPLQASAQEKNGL

In the case of `NS(=O)(=O)c1cc(C(=O)O)c(NCc2ccco2)cc1Cl` [Furosemide, furosemide], the “Inhibition mechanism at OAT1” value [1] is listed as “competitive”, the IC50 ([2]; 15 sec incubation) is listed as 19.6 ± 3 µM and the IC50 ([2]; 10 min incubation) is listed as 15.1 ± 2.2 µM.
